# Measurements from the supplement of paper PMC10849652.
# By UniProt entry, the sequences of proteins in these tests, tags left out. Where a name states a change or a piece, a line headed by the entry shows the natural chain unless it says otherwise.
# UniProt P08F94: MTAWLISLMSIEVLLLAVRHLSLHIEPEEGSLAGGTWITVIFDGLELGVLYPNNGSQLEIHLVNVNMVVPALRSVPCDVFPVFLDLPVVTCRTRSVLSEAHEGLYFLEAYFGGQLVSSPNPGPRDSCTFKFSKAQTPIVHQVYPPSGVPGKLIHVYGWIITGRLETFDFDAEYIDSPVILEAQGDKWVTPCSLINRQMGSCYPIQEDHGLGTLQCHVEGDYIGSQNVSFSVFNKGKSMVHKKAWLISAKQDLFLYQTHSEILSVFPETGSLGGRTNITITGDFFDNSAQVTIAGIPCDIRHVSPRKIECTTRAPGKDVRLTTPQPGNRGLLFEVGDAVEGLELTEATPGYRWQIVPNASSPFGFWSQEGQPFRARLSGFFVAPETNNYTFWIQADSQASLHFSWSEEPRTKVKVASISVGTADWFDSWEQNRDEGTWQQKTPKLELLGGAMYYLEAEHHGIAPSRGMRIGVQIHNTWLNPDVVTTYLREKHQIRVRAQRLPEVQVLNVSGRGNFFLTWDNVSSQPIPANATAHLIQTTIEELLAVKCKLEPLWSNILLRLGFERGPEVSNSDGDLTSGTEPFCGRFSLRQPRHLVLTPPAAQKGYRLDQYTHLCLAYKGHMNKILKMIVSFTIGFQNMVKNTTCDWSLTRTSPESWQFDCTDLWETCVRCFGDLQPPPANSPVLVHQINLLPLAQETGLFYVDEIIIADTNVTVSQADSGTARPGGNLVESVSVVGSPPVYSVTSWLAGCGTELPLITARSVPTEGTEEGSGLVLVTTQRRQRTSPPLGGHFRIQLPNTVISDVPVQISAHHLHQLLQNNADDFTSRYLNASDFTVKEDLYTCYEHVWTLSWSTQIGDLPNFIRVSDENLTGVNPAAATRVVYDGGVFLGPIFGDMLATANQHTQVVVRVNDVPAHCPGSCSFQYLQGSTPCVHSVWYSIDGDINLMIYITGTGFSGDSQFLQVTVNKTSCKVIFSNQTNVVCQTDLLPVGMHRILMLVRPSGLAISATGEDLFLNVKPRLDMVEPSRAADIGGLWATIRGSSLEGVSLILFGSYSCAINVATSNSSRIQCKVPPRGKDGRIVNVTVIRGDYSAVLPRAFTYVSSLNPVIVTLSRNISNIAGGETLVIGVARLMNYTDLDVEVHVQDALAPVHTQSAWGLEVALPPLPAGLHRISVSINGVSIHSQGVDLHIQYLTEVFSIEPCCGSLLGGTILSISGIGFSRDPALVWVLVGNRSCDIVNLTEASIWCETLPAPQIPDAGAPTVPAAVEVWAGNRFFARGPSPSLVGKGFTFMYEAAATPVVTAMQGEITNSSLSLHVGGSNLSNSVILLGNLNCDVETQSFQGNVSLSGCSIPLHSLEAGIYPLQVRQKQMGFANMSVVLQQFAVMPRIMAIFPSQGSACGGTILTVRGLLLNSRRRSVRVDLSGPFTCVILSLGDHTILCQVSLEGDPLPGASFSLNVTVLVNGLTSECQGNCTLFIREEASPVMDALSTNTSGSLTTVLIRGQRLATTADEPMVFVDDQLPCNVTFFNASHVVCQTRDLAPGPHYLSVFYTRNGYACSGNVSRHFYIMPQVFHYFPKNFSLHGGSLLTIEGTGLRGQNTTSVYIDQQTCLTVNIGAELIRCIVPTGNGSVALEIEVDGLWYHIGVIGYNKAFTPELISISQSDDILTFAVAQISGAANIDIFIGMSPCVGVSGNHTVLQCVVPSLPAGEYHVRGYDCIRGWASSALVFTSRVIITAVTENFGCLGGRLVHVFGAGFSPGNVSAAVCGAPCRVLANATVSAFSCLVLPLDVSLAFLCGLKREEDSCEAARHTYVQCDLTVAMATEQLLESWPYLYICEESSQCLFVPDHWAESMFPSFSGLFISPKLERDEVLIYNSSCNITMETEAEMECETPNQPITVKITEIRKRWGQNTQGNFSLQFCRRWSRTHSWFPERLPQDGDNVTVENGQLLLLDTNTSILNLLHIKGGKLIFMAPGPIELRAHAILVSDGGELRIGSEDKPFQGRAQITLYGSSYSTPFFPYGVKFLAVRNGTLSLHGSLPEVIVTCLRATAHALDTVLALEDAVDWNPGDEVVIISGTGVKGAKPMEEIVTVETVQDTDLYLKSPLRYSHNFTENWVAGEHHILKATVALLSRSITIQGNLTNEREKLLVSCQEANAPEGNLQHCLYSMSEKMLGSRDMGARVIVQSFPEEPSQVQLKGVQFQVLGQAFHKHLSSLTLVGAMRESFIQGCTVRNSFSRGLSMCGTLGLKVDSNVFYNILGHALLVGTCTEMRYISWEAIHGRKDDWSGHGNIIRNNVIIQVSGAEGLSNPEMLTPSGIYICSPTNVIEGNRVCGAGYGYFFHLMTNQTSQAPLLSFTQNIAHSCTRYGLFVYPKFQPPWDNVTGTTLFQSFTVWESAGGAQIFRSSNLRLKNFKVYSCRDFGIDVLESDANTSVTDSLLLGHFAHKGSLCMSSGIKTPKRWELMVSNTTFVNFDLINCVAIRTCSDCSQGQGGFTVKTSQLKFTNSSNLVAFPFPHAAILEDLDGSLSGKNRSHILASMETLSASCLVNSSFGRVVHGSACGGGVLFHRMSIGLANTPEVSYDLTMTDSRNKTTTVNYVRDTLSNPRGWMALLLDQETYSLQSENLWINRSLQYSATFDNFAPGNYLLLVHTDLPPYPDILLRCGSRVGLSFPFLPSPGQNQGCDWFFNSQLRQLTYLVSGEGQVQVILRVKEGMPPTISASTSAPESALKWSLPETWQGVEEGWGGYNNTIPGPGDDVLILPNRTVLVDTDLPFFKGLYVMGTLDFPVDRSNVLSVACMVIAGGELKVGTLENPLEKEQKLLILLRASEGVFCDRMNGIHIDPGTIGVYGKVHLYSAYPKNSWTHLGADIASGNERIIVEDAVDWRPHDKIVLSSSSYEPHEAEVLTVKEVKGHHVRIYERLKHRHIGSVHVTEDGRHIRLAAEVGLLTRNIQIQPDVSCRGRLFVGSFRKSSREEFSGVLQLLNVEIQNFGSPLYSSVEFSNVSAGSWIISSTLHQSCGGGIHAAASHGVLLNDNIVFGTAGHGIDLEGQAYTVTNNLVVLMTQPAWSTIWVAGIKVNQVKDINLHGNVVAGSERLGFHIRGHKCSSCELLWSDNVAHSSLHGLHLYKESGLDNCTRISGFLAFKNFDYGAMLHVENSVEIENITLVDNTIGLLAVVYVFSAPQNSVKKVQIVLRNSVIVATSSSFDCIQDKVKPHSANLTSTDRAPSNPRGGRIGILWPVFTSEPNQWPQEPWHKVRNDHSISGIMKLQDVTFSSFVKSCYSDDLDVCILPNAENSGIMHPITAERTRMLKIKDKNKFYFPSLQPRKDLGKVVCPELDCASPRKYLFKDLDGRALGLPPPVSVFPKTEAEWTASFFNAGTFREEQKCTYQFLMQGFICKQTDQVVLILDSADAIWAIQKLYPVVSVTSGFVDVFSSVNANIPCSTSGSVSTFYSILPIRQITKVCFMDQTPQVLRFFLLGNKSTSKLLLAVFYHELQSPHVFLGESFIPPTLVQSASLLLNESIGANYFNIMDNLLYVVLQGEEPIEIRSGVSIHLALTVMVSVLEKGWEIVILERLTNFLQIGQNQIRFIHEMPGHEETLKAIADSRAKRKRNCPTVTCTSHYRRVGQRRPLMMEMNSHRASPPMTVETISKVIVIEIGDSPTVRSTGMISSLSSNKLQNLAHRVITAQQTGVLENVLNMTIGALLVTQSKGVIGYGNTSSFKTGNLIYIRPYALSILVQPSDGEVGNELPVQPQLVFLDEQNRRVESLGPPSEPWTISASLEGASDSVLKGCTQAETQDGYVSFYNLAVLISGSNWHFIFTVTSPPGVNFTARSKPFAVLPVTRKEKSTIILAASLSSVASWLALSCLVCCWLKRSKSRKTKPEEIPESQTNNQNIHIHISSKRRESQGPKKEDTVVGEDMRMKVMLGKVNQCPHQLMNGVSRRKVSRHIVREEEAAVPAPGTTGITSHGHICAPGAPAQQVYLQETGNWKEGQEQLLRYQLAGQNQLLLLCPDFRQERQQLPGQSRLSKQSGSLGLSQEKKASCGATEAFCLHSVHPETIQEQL
# UniProt Q9BSJ6: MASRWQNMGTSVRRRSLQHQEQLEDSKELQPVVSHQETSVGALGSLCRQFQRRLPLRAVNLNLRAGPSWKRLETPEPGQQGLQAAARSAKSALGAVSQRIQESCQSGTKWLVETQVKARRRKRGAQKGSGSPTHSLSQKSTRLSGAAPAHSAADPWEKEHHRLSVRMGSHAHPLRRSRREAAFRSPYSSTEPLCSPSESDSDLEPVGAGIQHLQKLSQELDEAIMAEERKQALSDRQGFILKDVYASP
# UniProt Q16513: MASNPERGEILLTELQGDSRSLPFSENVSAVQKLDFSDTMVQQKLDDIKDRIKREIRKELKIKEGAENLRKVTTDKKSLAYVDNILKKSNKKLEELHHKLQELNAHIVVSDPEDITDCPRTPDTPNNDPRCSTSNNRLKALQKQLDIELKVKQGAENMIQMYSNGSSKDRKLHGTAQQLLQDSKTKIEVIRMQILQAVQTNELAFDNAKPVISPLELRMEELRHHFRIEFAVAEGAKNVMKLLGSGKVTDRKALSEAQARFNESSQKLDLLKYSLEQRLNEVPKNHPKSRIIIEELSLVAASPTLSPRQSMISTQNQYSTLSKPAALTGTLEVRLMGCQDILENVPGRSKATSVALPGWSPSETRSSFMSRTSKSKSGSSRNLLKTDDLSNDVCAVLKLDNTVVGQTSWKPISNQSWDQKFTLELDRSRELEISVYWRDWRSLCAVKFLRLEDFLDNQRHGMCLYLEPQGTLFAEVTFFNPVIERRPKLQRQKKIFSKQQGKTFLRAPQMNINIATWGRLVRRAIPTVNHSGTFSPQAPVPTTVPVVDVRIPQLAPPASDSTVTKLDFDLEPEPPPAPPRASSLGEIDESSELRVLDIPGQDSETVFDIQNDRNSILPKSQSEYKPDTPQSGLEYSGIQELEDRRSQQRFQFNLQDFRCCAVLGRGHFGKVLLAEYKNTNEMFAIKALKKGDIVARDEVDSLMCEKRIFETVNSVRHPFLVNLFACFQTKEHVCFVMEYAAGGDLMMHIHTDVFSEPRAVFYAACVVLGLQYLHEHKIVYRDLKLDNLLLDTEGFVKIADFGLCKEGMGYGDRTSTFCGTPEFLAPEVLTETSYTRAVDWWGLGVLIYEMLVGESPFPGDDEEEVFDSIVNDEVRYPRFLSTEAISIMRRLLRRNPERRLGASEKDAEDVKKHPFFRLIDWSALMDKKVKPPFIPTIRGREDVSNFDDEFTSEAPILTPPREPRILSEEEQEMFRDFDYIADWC
# UniProt Q8TCD6: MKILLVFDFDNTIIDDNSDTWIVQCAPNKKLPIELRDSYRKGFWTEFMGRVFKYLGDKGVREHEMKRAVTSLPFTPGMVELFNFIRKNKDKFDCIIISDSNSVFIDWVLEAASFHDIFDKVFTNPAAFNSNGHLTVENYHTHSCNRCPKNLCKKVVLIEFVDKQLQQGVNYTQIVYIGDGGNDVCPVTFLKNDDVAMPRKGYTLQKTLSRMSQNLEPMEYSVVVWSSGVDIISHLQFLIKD
# UniProt Q96CS7: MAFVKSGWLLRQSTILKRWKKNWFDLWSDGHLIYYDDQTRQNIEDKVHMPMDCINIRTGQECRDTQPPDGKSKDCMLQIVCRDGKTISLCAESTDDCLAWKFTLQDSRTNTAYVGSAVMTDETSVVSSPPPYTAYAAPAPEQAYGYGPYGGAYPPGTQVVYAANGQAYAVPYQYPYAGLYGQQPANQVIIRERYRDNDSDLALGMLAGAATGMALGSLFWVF
# UniProt Q8N4B1: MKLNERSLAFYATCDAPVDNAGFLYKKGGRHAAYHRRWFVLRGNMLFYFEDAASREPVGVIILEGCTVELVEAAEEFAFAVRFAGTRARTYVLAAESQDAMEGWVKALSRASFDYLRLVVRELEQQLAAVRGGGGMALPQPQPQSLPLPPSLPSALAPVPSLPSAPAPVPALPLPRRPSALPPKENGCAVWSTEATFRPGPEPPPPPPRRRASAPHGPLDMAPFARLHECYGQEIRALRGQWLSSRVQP
# UniProt Q7Z412: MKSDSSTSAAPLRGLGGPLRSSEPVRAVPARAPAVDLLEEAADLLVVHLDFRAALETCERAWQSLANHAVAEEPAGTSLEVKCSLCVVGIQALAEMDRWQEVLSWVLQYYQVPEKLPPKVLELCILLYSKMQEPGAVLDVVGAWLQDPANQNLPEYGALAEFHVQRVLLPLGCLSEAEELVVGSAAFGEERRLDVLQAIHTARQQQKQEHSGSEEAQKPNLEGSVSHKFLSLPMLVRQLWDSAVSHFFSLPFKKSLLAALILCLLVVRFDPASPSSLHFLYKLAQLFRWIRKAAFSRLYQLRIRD
# UniProt Q8N2A8: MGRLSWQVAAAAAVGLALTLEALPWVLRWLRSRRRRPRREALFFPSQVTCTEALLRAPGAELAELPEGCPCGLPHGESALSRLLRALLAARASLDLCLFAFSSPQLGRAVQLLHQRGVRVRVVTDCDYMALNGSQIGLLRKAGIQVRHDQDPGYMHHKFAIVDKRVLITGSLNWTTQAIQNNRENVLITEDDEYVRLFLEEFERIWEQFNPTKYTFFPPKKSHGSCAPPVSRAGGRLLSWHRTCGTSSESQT
# The other results are listed elsewhere or left out.
# Compound: CNCc1ccc(-c2[nH]c3cc(F)cc4c3c2CCNC4=O)cc1 [rucaparib]
# Experiment: log2 fold change, soluble protein after heating vs DMSO (PISA); higher = thermal stabilisation; K562 cells, 10 uM, 30 min; active = over 0.2 and 3.5 SD of the protein, either way, in both replicates (recomputed)
# Method in brief: (§1)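 K562 cells at 2×10^6 cells/mL were treated with 10 μM compound for 30 min. Aliquots were heated for 3 min across 48°C-58°C, pooled, and extracted in PBS with 0.5% NP-40 at 4°C; soluble protein was the supernatant after 21,000xg for 90 min. Soluble protein was quantified by TMTpro 16plex LC-MS/MS with channel sums equalised, and reported as log2 fold change in thermal stability against DMSO controls, with values from duplicates.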
row,Target,log2 fold change
1,PKHD1 (UniProt P08F94),inactive: 0.039
2,PIMREG (UniProt Q9BSJ6),inactive: -0.201
3,PKN2 (UniProt Q16513),inactive: -0.039

# Compound: CNc1nc(-c2ccc3c(N)n[nH]c3c2)cc(N2C[C@@H](C(=O)NC3CCCCC3)CC[C@H]2C)n1
# Experiment: as above
# Method in brief: as §1
row,Target,log2 fold change
1,PIP5K1C isoform 3 (UniProt O60331),inactive: 0.236
2,PIAS4 (UniProt Q8N2W9),inactive: -0.043
3,PLA2G4B isoform 6 (UniProt P0C869),inactive: 0.006
4,PGM1 isoform 2 (UniProt P36871),inactive: -0.15
5,PEX5 isoform 4 (UniProt P50542),inactive: 0.182
6,PHF14 (UniProt O94880),inactive: -0.114
7,PIBF1 (UniProt Q8WXW3),inactive: 0.113
8,PHOSPHO2 (UniProt Q8TCD6),inactive: -0.112
9,PINX1 (UniProt Q96BK5),inactive: 0.043
10,PKNOX1 (UniProt P55347),inactive: 0.081
11,PLEKHB2 isoform 2 (UniProt Q96CS7),inactive: 0.035
12,PKN2 (UniProt Q16513),inactive: -0.037
13,PHYKPL (UniProt Q8IUZ5),inactive: 0.168
14,PHLPP1 (UniProt O60346),inactive: 0.174
15,PHETA1 isoform 4 (UniProt Q8N4B1),inactive: -0.111
16,PEX26 (UniProt Q7Z412),inactive: -0.037

# Compound: COC(=O)N[C@@H](C)CNc1nccc(-c2cn(C(C)C)nc2-c2cc(Cl)cc(NS(C)(=O)=O)c2F)n1 [encorafenib]
# Experiment: as above
# Method in brief: as §1
row,Target,log2 fold change
1,PKHD1 (UniProt P08F94),inactive: -0.034
2,PIMREG (UniProt Q9BSJ6),inactive: 0.158
3,PKN2 (UniProt Q16513),inactive: 0.024

# Compound: COC(=O)[C@H](CCSC)NC(=O)C1=C(C=C(C=C1)NC[C@H](CS)N)C2=CC=CC=C2
# Experiment: as above
# Method in brief: as §1
row,Target,log2 fold change
1,PLD6 (UniProt Q8N2A8),inactive: 0.09
2,PLEK (UniProt P08567),inactive: -0.065
3,PLA2G4B isoform 6 (UniProt P0C869),inactive: -0.002
4,PEX5 isoform 4 (UniProt P50542),inactive: -0.097
5,PHF14 (UniProt O94880),inactive: -0.193
6,PKHD1 (UniProt P08F94),inactive: -0.072
7,PKLR (UniProt F8W6W2),inactive: 0.268
8,PGD (UniProt K7EM49),inactive: 0.066
9,PHOSPHO2 (UniProt Q8TCD6),inactive: 0.112
10,PINX1 (UniProt Q96BK5),inactive: 0.035
11,PKN2 (UniProt Q16513),inactive: -0.05
12,PIGO (UniProt Q8TEQ8),inactive: -0.031
13,PEX26 (UniProt Q7Z412),inactive: 0.028
